PubChem BioAssay AID493246 – Drosophila RNAi Screening Center, 2011
The deposit covers about 21,000 reagents; shown is a random part of those that have a named target and a result. In the full data, 429 (2%) are marked active. 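Values are raw and not normalised between plates; calls rest on per-plate z-scores that were not deposited.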 Unmarked entries are inactive. Not stated in the record: the amount of reagent, the time to read-out.

Screen: 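Genes fly cells need to grow and stay alive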 (primary screen)
Cell system: Drosophila Kc and S2R+ cells
Reagent: long dsRNA against Drosophila genes
Measurement: 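Raw, unnormalised count of remaining cells in each well; per-plate z-scores of cell number underlie the calls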
Direction: Kc cell number and S2R+ cell number: higher = more cells remaining
Call rule: 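Active when the per-plate z-score of cell number is 3 or more in the direction of fewer cells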

target	amplicon	Kc cell number, rep 1	Kc cell number, rep 2	S2R+ cell number, rep 1	S2R+ cell number, rep 2
Irbp18 (Inverted repeat binding protein 18 kDa)	DRSC10612	1.39e6	1.48e6	1.32e6	1.46e6
CG4679	DRSC06880	1.53e6	1.53e6	1.10e6	1.24e6
CycY (Cyclin Y)	DRSC02420	1.28e6	1.32e6	1.09e6	1.18e6
Trp1 (Translocation protein 1)	DRSC03465	1.48e6	1.48e6	1.16e6	1.28e6
CG11248	DRSC11644	1.53e6	1.58e6	1.18e6	1.27e6
fne (found in neurons)	DRSC20332	1.29e6	1.26e6	7.93e5	8.99e5
CG5614	DRSC15845	1.27e6	1.36e6	1.01e6	1.10e6
CG42713	DRSC01050	1.63e6	1.68e6	1.09e6	1.23e6
pelo (pelota)	DRSC03588	1.32e6	1.37e6	1.31e6	1.27e6
CG2121	DRSC06819	1.31e6	1.35e6	1.08e6	1.19e6
CG2121	DRSC06820	1.70e6	1.75e6	1.41e6	1.54e6
Cyp4d20 (Cytochrome P450 4d20)	DRSC08654	1.55e6	1.50e6	1.01e6	1.44e6
Nprl3 (Nitrogen permease regulator-like 3)	DRSC11044	1.53e6	1.62e6	1.23e6	1.23e6
CG5281	DRSC15761	1.36e6	1.38e6	1.16e6	1.22e6
CG8249	DRSC07125	1.56e6	1.60e6	1.17e6	1.28e6

2 entries already listed, sorted by “Kc cell number, rep 2”, low to high:
target	amplicon	Kc cell number, rep 1	Kc cell number, rep 2	S2R+ cell number, rep 1	S2R+ cell number, rep 2
fne (found in neurons)	DRSC20332	1.29e6	1.26e6	7.93e5	8.99e5
CG11248	DRSC11644	1.53e6	1.58e6	1.18e6	1.27e6

The list goes on:
target	amplicon	Kc cell number, rep 1	Kc cell number, rep 2	S2R+ cell number, rep 1	S2R+ cell number, rep 2
CG43980	DRSC11500	1.49e6	1.57e6	1.15e6	1.33e6
CG43980	DRSC11646	1.29e6	1.22e6	1.28e6	1.36e6
Ir60d (Ionotropic receptor 60d)	DRSC04218	1.57e6	1.56e6	1.26e6	1.39e6
CG11670	DRSC14342	1.50e6	1.52e6	1.11e6	1.25e6
CG15572	DRSC18060	1.67e6	1.66e6	1.02e6	1.13e6
borr (borealin-related)	DRSC02749	1.29e6	1.30e6	1.05e6	1.06e6
bwa (brain washing)	DRSC01749	4.61e5		8.33e5	
bwa (brain washing)	DRSC02310	1.48e6	1.67e6	1.35e6	3.01e5
Bub3	DRSC14168	5.21e5		6.78e5	
CG32833	DRSC04596	1.36e6	1.43e6	1.11e6	1.23e6
swi2	DRSC06457	1.65e6	1.72e6	1.21e6	1.40e6
CG3165	DRSC00573	1.32e6	1.33e6	9.78e5	1.07e6
wdb (widerborst)	DRSC14163	1.47e6	1.57e6	9.47e5	1.14e6
CG14115	DRSC10118	1.16e6	1.15e6	1.26e6	1.34e6
CG2124	DRSC18208	1.49e6	1.44e6	1.01e6	1.07e6
Fak (Focal adhesion kinase)	DRSC07426	1.47e6	1.53e6	1.18e6	1.24e6
CG15649	DRSC04240	1.68e6	1.76e6	1.33e6	5.13e5
Pgant4 (Polypeptide N-Acetylgalactosaminyltransferase 4)	DRSC00717	1.55e6	1.55e6	1.21e6	1.37e6
CG33299	DRSC01085	1.49e6	1.57e6	1.02e6	1.17e6
CG3491	DRSC01934	1.54e6	1.68e6	9.54e5	1.11e6
Cluap1 (Clusterin associated protein 1)	DRSC20637	1.45e6	1.50e6	1.02e6	1.13e6
CG8034	DRSC20076	1.55e6	1.61e6	9.95e5	1.15e6
Vps52 (Vacuolar protein sorting 52)	DRSC03050	1.47e6	1.35e6	1.10e6	1.30e6
CG1635	DRSC15131	5.06e5		7.64e5	
Sumo (Small ubiquitin like modifier)	DRSC03611	6.81e5 (active)	9.31e5	3.40e5	4.20e5
